Assay results from paper PMC5681688.
No constants are given. Whether binding was seen depends on the method and setting. Binding seen in cells or lysates may run through a third protein. Some entries that bind do so weakly or less than the wild type.

The chains behind the UniProt entries cited, without tags or fusion partners.
UniProt P08235: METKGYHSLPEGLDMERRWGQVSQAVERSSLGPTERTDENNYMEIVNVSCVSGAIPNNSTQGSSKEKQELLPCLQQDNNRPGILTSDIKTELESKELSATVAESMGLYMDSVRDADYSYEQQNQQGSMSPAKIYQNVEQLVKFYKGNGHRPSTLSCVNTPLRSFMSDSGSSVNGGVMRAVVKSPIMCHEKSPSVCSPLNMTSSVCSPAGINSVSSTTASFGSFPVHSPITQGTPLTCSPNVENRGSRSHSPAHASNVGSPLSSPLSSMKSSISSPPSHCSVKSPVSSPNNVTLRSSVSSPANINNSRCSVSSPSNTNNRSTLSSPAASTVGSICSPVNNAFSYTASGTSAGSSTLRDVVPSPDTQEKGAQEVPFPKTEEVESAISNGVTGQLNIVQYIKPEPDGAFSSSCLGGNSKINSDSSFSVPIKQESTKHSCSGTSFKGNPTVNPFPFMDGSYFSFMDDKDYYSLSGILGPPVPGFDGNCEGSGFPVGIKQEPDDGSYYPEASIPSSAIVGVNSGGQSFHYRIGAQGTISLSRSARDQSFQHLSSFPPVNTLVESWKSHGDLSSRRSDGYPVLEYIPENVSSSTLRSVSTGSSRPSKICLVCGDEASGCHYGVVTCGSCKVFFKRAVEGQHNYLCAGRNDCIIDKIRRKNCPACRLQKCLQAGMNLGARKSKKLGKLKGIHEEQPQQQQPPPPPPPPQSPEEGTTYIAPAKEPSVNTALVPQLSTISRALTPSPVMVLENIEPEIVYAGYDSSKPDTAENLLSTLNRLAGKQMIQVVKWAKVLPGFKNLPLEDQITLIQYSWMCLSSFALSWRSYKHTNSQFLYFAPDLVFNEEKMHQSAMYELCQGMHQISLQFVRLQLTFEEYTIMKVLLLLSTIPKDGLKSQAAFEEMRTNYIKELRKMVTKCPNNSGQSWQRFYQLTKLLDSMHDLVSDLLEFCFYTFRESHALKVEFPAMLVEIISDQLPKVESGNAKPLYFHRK

Target: EGFP-MR (human mineralocorticoid receptor, full length) (human) (UniProt P08235)
Experiment: co-IP; EGFP-MR or EGFP-MR^CDEF precipitated with anti-GFP-coupled magnetic beads and µ columns (Miltenyi) from whole cell lysates of transfected HEK cells; immunoblot of endogenous CK2α, CK2α' and CK2β; cells treated with vehicle, aldosterone (10 nM, 1 h) or geldanamycin (2 µM, 2 h); EGFP alone as control

binding: binds
Substance: Casein kinase 2 catalytic subunit alpha' (CK2α') (from UniProt P19784 1-350) (enzyme)
